Results deposited as PubChem BioAssay AID1259254 (NCATS, 2017)

Screen: 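Genome-wide screen for genes that prevent DNA re-replication in cancer cells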 (primary screen)
System: human HCT116 colorectal cancer cells
Reagents: single siRNA against human genes
Timing: 3 days
Detection: 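Imaged Hoechst DNA stain sorts each cell into a cycle phase by DNA amount; per plate, G2 fraction set to 0% for non-targeting and 100% for GMNN siRNA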
Direction: G2 robust z-score and G2 cells, % of GMNN control: higher = more G2 cells, more excess DNA replication
Hit rule: 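An siRNA counts as active if its G2 robust z-score lies at least 5 MADs above the screen median; here such calls match roughly 38% of GMNN control or more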
Here is one part, drawn at random, of about 59,000 deposited reagents. Of all reagents, about 1,550 (2.6%) got an active call. 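G2 share is only a proxy for re-replication; each gene was hit by three separate siRNAs, and active genes were retested.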 Entries without a mark were called inactive. Reagents against one gene are numbered here. Further read-outs or replicates are left out here. Not given: the amount of reagent.

Which result is listed for FANCE #1?
G2 robust z-score: -0.143; G2 cells, % of GMNN control: 1.96

Which result is listed for FANCE #2?
G2 robust z-score: -0.706; G2 cells, % of GMNN control: -2

Which result is listed for FANCE #3?
G2 robust z-score: 2.21; G2 cells, % of GMNN control: 18.5

With AFG3L2 #1, what does the deposit list?
G2 robust z-score: -1.31; G2 cells, % of GMNN control: -6.25

With AFG3L2 #2, what was measured?
G2 robust z-score: 1.58; G2 cells, % of GMNN control: 14.1

What did the screen give for AFG3L2 #3?
G2 robust z-score: -0.471; G2 cells, % of GMNN control: -0.349

What is on record for HCAR3 #1?
G2 robust z-score: 7.09 (active); G2 cells, % of GMNN control: 52.9

For HCAR3 #2, what was measured?
G2 robust z-score: 5.48 (active); G2 cells, % of GMNN control: 41.5

For HCAR3 #3, what was measured?
G2 robust z-score: -0.794; G2 cells, % of GMNN control: -2.62

How did the screen score PHF23 #1?
G2 robust z-score: -0.741; G2 cells, % of GMNN control: -2.24

How did the screen score PHF23 #2?
G2 robust z-score: -0.732; G2 cells, % of GMNN control: -2.19

What did the screen give for PHF23 #3?
G2 robust z-score: 2.05; G2 cells, % of GMNN control: 17.4

With IQCJ #1, what does the deposit list?
G2 robust z-score: 0.828; G2 cells, % of GMNN control: 8.79

For IQCJ #2, what does the deposit list?
G2 robust z-score: 1.25; G2 cells, % of GMNN control: 11.8

With IQCJ #3, what was measured?
G2 robust z-score: -0.316; G2 cells, % of GMNN control: 0.747

How did the screen score SPATA31D1 #1?
G2 robust z-score: 0.598; G2 cells, % of GMNN control: 7.17

For SPATA31D1 #2, how do the results read?
G2 robust z-score: 0.267; G2 cells, % of GMNN control: 4.85

For SPATA31D1 #3, how do the results read?
G2 robust z-score: -0.119; G2 cells, % of GMNN control: 2.13

How did the screen score EEF1G #1?
G2 robust z-score: 1.97; G2 cells, % of GMNN control: 16.9

How did the screen score EEF1G #2?
G2 robust z-score: -0.341; G2 cells, % of GMNN control: 0.567

With EEF1G #3, what was measured?
G2 robust z-score: 1.51; G2 cells, % of GMNN control: 13.6

For EN2 #1, how do the results read?
G2 robust z-score: -0.65; G2 cells, % of GMNN control: -1.6

For EN2 #2, how do the results read?
G2 robust z-score: 2.76; G2 cells, % of GMNN control: 22.4

For EN2 #3, how do the results read?
G2 robust z-score: -0.94; G2 cells, % of GMNN control: -3.65

With IGSF3 #1, how do the results read?
G2 robust z-score: -1.14; G2 cells, % of GMNN control: -5.04

Which result is listed for IGSF3 #2?
G2 robust z-score: 0.531; G2 cells, % of GMNN control: 6.7

What is on record for IGSF3 #3?
G2 robust z-score: -0.58; G2 cells, % of GMNN control: -1.11

What did the screen give for BRICD5 #1?
G2 robust z-score: 5.43 (active); G2 cells, % of GMNN control: 41.1

For BRICD5 #2, what does the deposit list?
G2 robust z-score: 0.325; G2 cells, % of GMNN control: 5.25

For BRICD5 #3, what does the deposit list?
G2 robust z-score: -0.506; G2 cells, % of GMNN control: -0.591
